Data as given in PubChem BioAssay AID1224830 (NIAID, 2016)

Aim: 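Genes whose knock-down alters the TNF-alpha reporter response to LPS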 (primary screen)
Cells: human THP-1 monocytic leukaemia cells, TNF dual-luciferase reporter clone, PMA-differentiated to macrophage-like cells
Reagents: siRNA pool against human genes, 50 nM
Duration: LPS for 4 h, given about 3 days after siRNA transfection
Treatment: bacterial LPS (TLR4 ligand), 10 ng/ml
Detection: 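TNF firefly reporter luminescence divided by renilla, normalised to the plate median, then turned into a robust z-score for each replicate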
Scale: TNF reporter robust z-score: higher = stronger TNF reporter response to LPS
Rule for the call: 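Each well counts as active if its z-score is over 2.8 or under -1.5; controls are left without a call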
The whole screen tested about 18,000 reagents; below is a random part of them. About 2,900 of all reagents (16%) count as active. 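Calls are made per well; low scores hint the gene aids the LPS response, high scores that it dampens it.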 Repeated entries: four replicate wells of each siRNA pool.

| target | TNF reporter robust z-score | Call |
| --- | --- | --- |
| USP18 | -0.63 | inactive |
| USP18 | -0.81 | inactive |
| USP18 | -0.36 | inactive |
| USP18 | 0.44 | inactive |
| ATP5MG | 0.01 | inactive |
| ATP5MG | 0.02 | inactive |
| ATP5MG | -0.01 | inactive |
| ATP5MG | 0.18 | inactive |
| TULP1 | 1.22 | inactive |
| TULP1 | 0.78 | inactive |
| TULP1 | 0.19 | inactive |
| TULP1 | 0.28 | inactive |
| DFFB | 0.48 | inactive |
| DFFB | 0.65 | inactive |
| DFFB | 0.4 | inactive |
| DFFB | 0.85 | inactive |
| NAP1L4 | 2.57 | inactive |
| NAP1L4 | 1.43 | inactive |
| NAP1L4 | -1.36 | inactive |
| NAP1L4 | 0.15 | inactive |
| SUSD6 | -0.92 | inactive |
| SUSD6 | 0.31 | inactive |
| SUSD6 | -0.53 | inactive |
| SUSD6 | 0.03 | inactive |
| PABPC1 | -0.51 | inactive |
| PABPC1 | -0.29 | inactive |
| PABPC1 | -1.03 | inactive |
| PABPC1 | -1.07 | inactive |
| SNX10 | 1.18 | inactive |
| SNX10 | 1.45 | inactive |
| SNX10 | 1.54 | inactive |
| SNX10 | 1.81 | inactive |
| DNAJC1 | -0.58 | inactive |
| DNAJC1 | -0.91 | inactive |
| DNAJC1 | -0.95 | inactive |
| DNAJC1 | -0.45 | inactive |
| SLC29A2 | -0.86 | inactive |
| SLC29A2 | 0.47 | inactive |
| SLC29A2 | -0.14 | inactive |
| SLC29A2 | -0.33 | inactive |
| PCDHGB3 | 0.73 | inactive |
| PCDHGB3 | 0.84 | inactive |
| PCDHGB3 | -0.35 | inactive |
| PCDHGB3 | -0.03 | inactive |
| STK17B | 0.4 | inactive |
| STK17B | 0.61 | inactive |
| STK17B | 1.02 | inactive |
| STK17B | 0.56 | inactive |
| UBE2D4 | 0.41 | inactive |
| UBE2D4 | 0.72 | inactive |
| UBE2D4 | 0 | inactive |
| UBE2D4 | 0.09 | inactive |
| CRTC1 | 0.48 | inactive |
| CRTC1 | 1.62 | inactive |
| CRTC1 | 1.15 | inactive |
| CRTC1 | -0.17 | inactive |
| RHOQ | -0.73 | inactive |
| RHOQ | 0.46 | inactive |
| RHOQ | -0.6 | inactive |
| RHOQ | -0.11 | inactive |
| KSR2 | -1.57 | active |
| KSR2 | -1.51 | active |
| KSR2 | -1.49 | inactive |
| KSR2 | -1.04 | inactive |
| DDX21 | – | inactive |
| DDX21 | 1.2 | inactive |
| DDX21 | 0.94 | inactive |
| DDX21 | 0.78 | inactive |
| DDX21 | 1.02 | inactive |
| OR2H2 | 0.2 | inactive |
| OR2H2 | 0.36 | inactive |
| OR2H2 | 1.17 | inactive |
| OR2H2 | 0.86 | inactive |
| SPAST | 0.63 | inactive |
| SPAST | 1.68 | inactive |
| SPAST | 0.56 | inactive |
| SPAST | 0.92 | inactive |
| FAM167B | 2.56 | inactive |
| FAM167B | 0.13 | inactive |
| FAM167B | 0.66 | inactive |
| FAM167B | -0.86 | inactive |
| STAP1 | -0.08 | inactive |
| STAP1 | 0.42 | inactive |
| STAP1 | -0.89 | inactive |
| STAP1 | -0.92 | inactive |
| TPM2 | -0.12 | inactive |
| TPM2 | 0.9 | inactive |
| TPM2 | 0.15 | inactive |
| TPM2 | 0.31 | inactive |
| TMEM170A | -0.54 | inactive |
| TMEM170A | 0.37 | inactive |
| TMEM170A | 0.22 | inactive |
| TMEM170A | -0.14 | inactive |
| KCNS2 | -1.07 | inactive |
| KCNS2 | -0.8 | inactive |
| KCNS2 | -0.13 | inactive |
| KCNS2 | 0.65 | inactive |
| SH3TC2 | 2.05 | inactive |
| SH3TC2 | 2.33 | inactive |
| SH3TC2 | 3.04 | active |
| SH3TC2 | 2.74 | inactive |
| TMEM109 | -1.1 | inactive |
| TMEM109 | 0.59 | inactive |
| TMEM109 | -0.89 | inactive |
| TMEM109 | 0.04 | inactive |
| LIPH | 0.1 | inactive |
| LIPH | 0.82 | inactive |
| LIPH | -0.25 | inactive |
| LIPH | 1.71 | inactive |
| MOSPD2 | 0.64 | inactive |
| MOSPD2 | 1.65 | inactive |
| MOSPD2 | 1.56 | inactive |

A portion of the results above, for reference:
| target | TNF reporter robust z-score | Call |
| --- | --- | --- |
| TPM2 | 0.31 | inactive |
| TMEM170A | -0.54 | inactive |
| TMEM170A | 0.37 | inactive |
| TMEM170A | 0.22 | inactive |
| TMEM170A | -0.14 | inactive |
| KCNS2 | -1.07 | inactive |
| KCNS2 | -0.8 | inactive |
| KCNS2 | -0.13 | inactive |
| KCNS2 | 0.65 | inactive |
| SH3TC2 | 2.05 | inactive |
